The other results are listed elsewhere or left out.
Key:
Assay in all cases: log2 fold change, soluble protein after heating vs DMSO (PISA); higher = thermal stabilisation; K562 cells, 10 uM, 30 min; active = over 0.2 and 3.5 SD of the protein, either way, in both replicates (recomputed)
[1] = compound: CC[C@@H]1C(=O)N(C)c2cnc(Nc3ccc(C(=O)NC4CCN(C)CC4)cc3OC)nc2N1C1CCCC1
Outline: (§1)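 K562 cells at 2×10^6 cells/mL were exposed to 10 μM compound for 30 min, then aliquots were heated for 3 min across 48°C-58°C, pooled, and extracted in PBS containing 0.5% NP-40 at 4°C. The supernatant after 21,000xg for 90 min was taken as soluble protein and measured by TMTpro 16plex LC-MS/MS with channel sums equalised. Thermal stability is reported relative to control samples, with values from duplicates. Fold changes are given on a log2 scale.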

Amino acid sequences for entries named in this document (tags omitted). A change or cut given only in a name is not applied to a line headed by its entry.
UniProt P10301: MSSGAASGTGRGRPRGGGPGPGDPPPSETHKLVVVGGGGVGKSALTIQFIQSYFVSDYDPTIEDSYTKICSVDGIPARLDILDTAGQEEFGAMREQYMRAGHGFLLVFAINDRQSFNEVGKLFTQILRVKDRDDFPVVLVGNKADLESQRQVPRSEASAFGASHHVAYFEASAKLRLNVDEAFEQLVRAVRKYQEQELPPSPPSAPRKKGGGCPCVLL
UniProt Q9P2E9: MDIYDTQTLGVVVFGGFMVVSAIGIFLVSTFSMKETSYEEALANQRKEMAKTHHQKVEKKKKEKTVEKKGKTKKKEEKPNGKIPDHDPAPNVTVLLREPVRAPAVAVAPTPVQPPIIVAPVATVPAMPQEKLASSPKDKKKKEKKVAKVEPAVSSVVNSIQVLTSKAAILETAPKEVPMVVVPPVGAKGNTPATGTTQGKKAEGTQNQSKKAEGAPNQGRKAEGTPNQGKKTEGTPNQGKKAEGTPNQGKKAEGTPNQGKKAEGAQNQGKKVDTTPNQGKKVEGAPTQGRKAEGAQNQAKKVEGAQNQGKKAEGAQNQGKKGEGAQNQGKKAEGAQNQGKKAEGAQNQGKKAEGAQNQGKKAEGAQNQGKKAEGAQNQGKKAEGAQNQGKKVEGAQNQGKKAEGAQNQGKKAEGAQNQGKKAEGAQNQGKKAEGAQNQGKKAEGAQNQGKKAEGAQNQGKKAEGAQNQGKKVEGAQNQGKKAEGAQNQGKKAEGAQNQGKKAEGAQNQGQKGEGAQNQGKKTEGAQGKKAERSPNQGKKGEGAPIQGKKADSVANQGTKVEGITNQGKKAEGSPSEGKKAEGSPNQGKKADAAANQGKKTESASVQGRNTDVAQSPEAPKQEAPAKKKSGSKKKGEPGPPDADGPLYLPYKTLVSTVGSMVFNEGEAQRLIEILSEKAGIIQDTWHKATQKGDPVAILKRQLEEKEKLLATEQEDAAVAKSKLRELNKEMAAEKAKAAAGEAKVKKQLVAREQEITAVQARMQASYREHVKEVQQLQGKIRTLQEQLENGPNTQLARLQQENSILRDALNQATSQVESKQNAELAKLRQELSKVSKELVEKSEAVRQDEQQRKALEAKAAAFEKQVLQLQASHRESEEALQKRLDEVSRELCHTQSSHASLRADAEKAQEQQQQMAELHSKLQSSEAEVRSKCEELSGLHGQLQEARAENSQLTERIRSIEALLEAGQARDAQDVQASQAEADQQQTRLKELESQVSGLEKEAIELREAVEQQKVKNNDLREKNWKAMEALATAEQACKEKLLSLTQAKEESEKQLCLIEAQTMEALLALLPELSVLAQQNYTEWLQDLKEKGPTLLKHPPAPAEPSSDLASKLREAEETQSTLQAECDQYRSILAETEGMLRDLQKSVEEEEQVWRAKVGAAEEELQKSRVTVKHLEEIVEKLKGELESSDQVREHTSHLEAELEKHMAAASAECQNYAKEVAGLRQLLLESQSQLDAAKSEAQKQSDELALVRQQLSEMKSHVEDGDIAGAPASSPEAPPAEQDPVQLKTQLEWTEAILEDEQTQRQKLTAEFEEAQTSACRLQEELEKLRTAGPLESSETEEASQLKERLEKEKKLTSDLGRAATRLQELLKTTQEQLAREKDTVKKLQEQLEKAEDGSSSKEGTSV
UniProt Q7LG56, whole entry, looked up: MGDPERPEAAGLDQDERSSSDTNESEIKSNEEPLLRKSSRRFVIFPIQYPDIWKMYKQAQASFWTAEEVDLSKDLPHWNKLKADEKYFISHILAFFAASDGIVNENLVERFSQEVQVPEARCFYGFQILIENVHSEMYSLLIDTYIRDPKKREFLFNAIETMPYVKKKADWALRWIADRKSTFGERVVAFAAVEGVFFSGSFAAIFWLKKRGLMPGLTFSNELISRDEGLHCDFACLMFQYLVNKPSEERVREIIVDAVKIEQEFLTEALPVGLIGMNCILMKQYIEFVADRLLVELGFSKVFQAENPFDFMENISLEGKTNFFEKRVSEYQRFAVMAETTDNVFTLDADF
UniProt P10155: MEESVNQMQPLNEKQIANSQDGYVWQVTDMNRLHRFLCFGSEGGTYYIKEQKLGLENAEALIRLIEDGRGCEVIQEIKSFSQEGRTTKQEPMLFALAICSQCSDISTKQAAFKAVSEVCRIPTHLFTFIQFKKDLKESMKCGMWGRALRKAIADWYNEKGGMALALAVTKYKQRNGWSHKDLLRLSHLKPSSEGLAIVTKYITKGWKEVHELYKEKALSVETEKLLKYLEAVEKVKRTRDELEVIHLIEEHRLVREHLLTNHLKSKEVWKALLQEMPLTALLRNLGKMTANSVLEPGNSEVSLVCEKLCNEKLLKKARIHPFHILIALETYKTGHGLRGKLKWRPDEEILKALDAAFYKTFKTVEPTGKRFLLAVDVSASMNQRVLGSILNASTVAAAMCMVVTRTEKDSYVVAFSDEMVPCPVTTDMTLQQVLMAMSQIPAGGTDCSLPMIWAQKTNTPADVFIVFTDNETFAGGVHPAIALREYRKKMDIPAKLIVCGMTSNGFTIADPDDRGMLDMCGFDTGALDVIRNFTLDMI
UniProt P04843: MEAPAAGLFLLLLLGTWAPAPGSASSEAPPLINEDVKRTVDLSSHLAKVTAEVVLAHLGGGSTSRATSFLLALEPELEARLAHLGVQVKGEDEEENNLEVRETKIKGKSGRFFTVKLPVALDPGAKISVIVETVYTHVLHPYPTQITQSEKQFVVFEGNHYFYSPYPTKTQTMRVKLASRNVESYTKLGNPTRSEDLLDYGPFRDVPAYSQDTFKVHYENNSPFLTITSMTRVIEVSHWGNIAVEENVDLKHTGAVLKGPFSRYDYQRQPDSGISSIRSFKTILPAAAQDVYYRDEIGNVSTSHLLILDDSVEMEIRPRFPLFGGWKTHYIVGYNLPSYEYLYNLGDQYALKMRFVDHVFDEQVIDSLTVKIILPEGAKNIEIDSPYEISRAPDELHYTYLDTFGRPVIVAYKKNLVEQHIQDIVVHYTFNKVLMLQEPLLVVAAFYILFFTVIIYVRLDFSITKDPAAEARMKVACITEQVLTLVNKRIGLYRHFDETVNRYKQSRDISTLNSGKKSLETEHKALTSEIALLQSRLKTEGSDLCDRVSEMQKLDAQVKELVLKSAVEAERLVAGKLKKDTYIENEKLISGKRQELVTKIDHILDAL
UniProt Q9H6T3, whole entry, looked up: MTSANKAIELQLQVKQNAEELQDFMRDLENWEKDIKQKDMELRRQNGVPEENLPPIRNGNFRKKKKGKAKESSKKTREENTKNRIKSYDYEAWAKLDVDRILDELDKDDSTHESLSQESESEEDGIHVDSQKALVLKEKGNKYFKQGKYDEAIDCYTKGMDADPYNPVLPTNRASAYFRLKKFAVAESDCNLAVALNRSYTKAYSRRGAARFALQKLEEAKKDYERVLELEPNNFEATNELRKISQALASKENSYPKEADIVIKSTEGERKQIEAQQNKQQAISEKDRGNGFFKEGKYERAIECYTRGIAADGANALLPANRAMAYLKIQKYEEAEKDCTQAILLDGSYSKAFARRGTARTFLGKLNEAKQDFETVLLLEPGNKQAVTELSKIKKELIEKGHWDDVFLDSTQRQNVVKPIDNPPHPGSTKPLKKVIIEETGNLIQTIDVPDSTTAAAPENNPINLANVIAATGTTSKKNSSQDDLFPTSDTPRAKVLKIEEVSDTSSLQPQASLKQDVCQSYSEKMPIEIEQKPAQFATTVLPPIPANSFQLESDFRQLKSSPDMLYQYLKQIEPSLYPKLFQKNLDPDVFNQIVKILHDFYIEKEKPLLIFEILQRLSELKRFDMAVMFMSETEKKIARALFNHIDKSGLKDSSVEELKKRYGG

[2] = compound: CC[C@@H]1C(=O)N(C)c2cnc(Nc3ccc(C(=O)N[C@H]4CC[C@H](N5CCN(CC6CC6)CC5)CC4)cc3OC)nc2N1C(C)C [volasertib]
Outline: as §1

[3] = compound: CC[C@H](C)N1C=C(C2=C(C=C(C=C21)C3=CN=C(C=C3)N4CCNCC4)C(=O)NCC5=C(C=C(NC5=O)C)C)C
Outline: as §1

[4] = compound: CC[C@H](C)[C@@H](C(=O)N[C@@H]([C@@H](C)O)C(=O)N[C@@H](CC(C)C)C(=O)[C@]1(CO1)C)NC(=O)[C@H]([C@@H](C)CC)N(C)C(=O)C [epoxomicin]
Outline: as §1

[5] = compound: CCn1c(C(=O)N(C2CC2)C2CC2)cc2c3c(ncn3C)c(Nc3cc(C)n(C)n3)nc21
Outline: as §1

[6] = compound: CCn1cc(-c2ccnc3[nH]c(-c4cccc(CN(C)C)c4)cc23)c(-c2ccc(NC(=O)N(C)C)cc2)n1
Outline: as §1

[7] = compound: CN(C)CC(=O)Nc1ccc2[nH]c(=O)c3ccccc3c2c1
Outline: as §1

[8] = compound: CN(CCOC1=CC=C(C=C1)C[C@H]2C(=O)NC(=O)S2)C3=CC=CC=N3 (racemic) [rosiglitazone]
Outline: as §1

[9] = compound: CN1C2=C(C3=C1C(=O)N(N=C3)CC4=CC(=CC=C4)N)SC(=C2)S(=O)C
Outline: as §1

[10] = compound: CN1CCC(CNc2ccc3ncc(-c4cccc(OC(F)(F)F)c4)n3n2)CC1
Outline: as §1

[11] = compound: CN1CCN(CCOc2cc(OC3CCOCC3)c3c(Nc4c(Cl)ccc5c4OCO5)ncnc3c2)CC1 [saracatinib]
Outline: as §1

[12] = compound: CN1CCN(c2nc(C3=C(c4c[nH]c5ccccc45)C(=O)NC3=O)c3ccccc3n2)CC1 [sotrastaurin]
Outline: as §1

[13] = compound: CN1CC[C@H](c2c(O)cc(O)c3c(=O)cc(-c4ccccc4Cl)oc23)[C@H](O)C1 [alvocidib]
Outline: as §1

[14] = compound: CN1CCc2c(c3ccccc3n2Cc2ccc(C(=O)NO)cc2)C1 [Tubastatin A]
Outline: as §1

[15] = compound: CNC(=O)C1=CC=CC=C1NC2=NC(=NC=C2Cl)NC3=C(C=C(C=C3)N4CCOCC4)OC
Outline: as §1

[16] = compound: CNC(=O)c1ccc(Nc2ncc(C(F)(F)F)c(NCc3nccnc3N(C)S(C)(=O)=O)n2)cc1 [defactinib]
Outline: as §1

[17] = compound: CNCc1ccc(-c2[nH]c3cc(F)cc4c3c2CCNC4=O)cc1 [rucaparib]
Outline: as §1

[18] = compound: CNc1nc(-c2ccc3c(N)n[nH]c3c2)cc(N2C[C@@H](C(=O)NC3CCCCC3)CC[C@H]2C)n1
Outline: as §1

[19] = compound: COC(=O)N[C@@H](C)CNc1nccc(-c2cn(C(C)C)nc2-c2cc(Cl)cc(NS(C)(=O)=O)c2F)n1 [encorafenib]
Outline: as §1

[20] = compound: COC(=O)[C@H](CCSC)NC(=O)C1=C(C=C(C=C1)NC[C@H](CS)N)C2=CC=CC=C2
Outline: as §1

Measured: log2 fold change

RPL15 (UniProt P61313)
inactive: [1] 0.298 | [2] 0.816 | [3] -0.028 | [4] -0.801 | [5] 0.073 | [6] 0.407 | [7] -0.312 | [8] -0.307 | [9] 0.633 | [10] 0.487 | [11] -0.193 | [12] -0.006 | [13] 0.487 | [14] 0.252 | [15] 0.026 | [16] 0.731 | [17] 0.465 | [18] 0.277 | [19] 0.256 | [20] 0.048

RRAS (UniProt P10301)
inactive: [1] 0.114 | [2] 0.104 | [3] -0.041 | [4] -0.023 | [5] -0.024 | [6] 0.007 | [7] -0.032 | [8] -0.015 | [9] -0.067 | [10] 0.121 | [11] 0.021 | [12] 0.041 | [13] 0.004 | [14] 0.033 | [15] 0.055 | [16] -0.041 | [17] -0.024 | [18] 0.034 | [19] -0.017 | [20] 0.037

RPL23 (UniProt P62829)
inactive: [1] 0.176 | [2] 0.379 | [3] 0.041 | [4] -0.207 | [5] -0.006 | [6] 0.101 | [7] -0.078 | [8] -0.091 | [9] 0.227 | [10] 0.143 | [11] -0.08 | [12] -0.012 | [13] 0.322 | [14] 0.1 | [15] 0.089 | [16] 0.338 | [17] 0.325 | [18] 0.115 | [19] 0.116 | [20] 0.044

RRBP1 (UniProt Q9P2E9)
inactive: [1] 0.205 | [2] 0.435 | [3] -0.032 | [4] -0.441 | [5] 0.039 | [6] 0.37 | [7] -0.184 | [8] -0.213 | [9] 0.416 | [10] 0.268 | [11] -0.072 | [12] -0.048 | [13] 0.292 | [14] 0.157 | [15] 0.014 | [16] 0.353 | [17] 0.387 | [18] 0.079 | [19] 0.146 | [20] 0.013

RRM2B isoform 6 (UniProt Q7LG56)
inactive: [1] 0.018 | [2] -0.049 | [3] -0.026 | [4] -0.057 | [5] 0.025 | [6] -0.045 | [7] -0.058 | [8] 0.002 | [9] -0.099 | [10] 0 | [11] -0.086 | [12] 0.042 | [13] 0.056 | [14] 0.001 | [15] -0.034 | [16] -0.023 | [17] -0.009 | [18] -0.064 | [19] -0.022 | [20] 0.067

RO60 (UniProt P10155)
inactive: [1] 0.03 | [2] 0.057 | [3] -0.02 | [4] -0.005 | [5] 0.001 | [6] 0.005 | [7] -0.034 | [8] -0.017 | [9] -0.061 | [10] -0.037 | [11] 0.027 | [12] 0.079 | [13] 0.006 | [14] -0.013 | [15] -0.02 | [16] 0 | [17] 0.018 | [18] -0.059 | [19] -0.033 | [20] 0.045

RPS29 (UniProt P62273)
inactive: [1] -0.064 | [2] 0.388 | [3] -0.192 | [4] -0.03 | [5] -0.03 | [6] 0.085 | [7] -0.074 | [8] -0.224 | [9] 0.17 | [10] 0.24 | [11] -0.066 | [12] -0.014 | [13] 0.173 | [14] 0.09 | [15] 0.167 | [16] 0.399 | [17] 0.153 | [18] 0.007 | [19] -0.043 | [20] -0.001

RPS28 (UniProt P62857)
inactive: [1] -0.088 | [2] 0.212 | [3] -0.048 | [4] -0.019 | [5] 0.02 | [6] 0.131 | [7] -0.121 | [8] -0.088 | [9] 0.113 | [10] 0.077 | [11] -0.066 | [12] 0.01 | [13] 0.114 | [14] -0.04 | [15] -0.021 | [16] 0.089 | [17] 0.233 | [18] 0.053 | [19] -0.068 | [20] 0.071

RPL36AL (UniProt Q969Q0)
inactive: [1] 0.026 | [2] 0.45 | [3] -0.016 | [4] -0.137 | [5] -0.01 | [6] 0.208 | [7] -0.24 | [8] -0.222 | [9] 0.293 | [10] 0.357 | [11] -0.091 | [12] -0.003 | [13] 0.323 | [14] 0.064 | [15] 0.068 | [16] 0.378 | [17] 0.479 | [18] 0.127 | [19] 0.052 | [20] 0.061

RPS26 (UniProt P62854)
inactive: [1] 0.302 | [2] 0.506 | [3] -0.015 | [4] -0.294 | [5] 0.027 | [6] 0.231 | [7] -0.21 | [8] -0.193 | [9] 0.293 | [10] 0.195 | [11] -0.072 | [12] -0.027 | [13] 0.35 | [14] 0.098 | [15] 0.06 | [16] 0.397 | [17] 0.327 | [18] 0.105 | [19] 0.208 | [20] 0.012

RPL13A (UniProt P40429)
inactive: [1] 0.31 | [2] 0.794 | [3] 0.011 | [4] -0.654 | [5] 0.046 | [6] 0.303 | [7] -0.314 | [8] -0.34 | [9] 0.516 | [10] 0.478 | [11] -0.176 | [12] -0.123 | [13] 0.501 | [14] 0.222 | [15] 0.054 | [16] 0.662 | [17] 0.468 | [18] 0.259 | [19] 0.254 | [20] -0.059

RPL17 isoform 3 (UniProt P18621)
inactive: [1] 0.182 | [2] 0.512 | [3] 0.044 | [4] -0.357 | [5] -0.025 | [6] 0.325 | [7] -0.138 | [8] -0.2 | [9] 0.314 | [10] 0.187 | [11] -0.054 | [12] -0.067 | [13] 0.309 | [14] 0.135 | [15] 0.058 | [16] 0.353 | [17] 0.579 | [18] 0.127 | [19] 0.086 | [20] 0.038

RPL6 (UniProt Q02878)
inactive: [1] 0.297 | [2] 0.846 | [3] 0 | [4] -0.476 | [5] 0.095 | [6] 0.318 | [7] -0.265 | [8] -0.336 | [9] 0.538 | [10] 0.436 | [11] -0.206 | [12] -0.041 | [13] 0.44 | [14] 0.248 | [15] 0.075 | [16] 0.577 | [17] 0.506 | [18] 0.261 | [19] 0.252 | [20] -0.037

RPN1 (UniProt P04843)
inactive: [1] -0.036 | [2] -0.048 | [3] 0.012 | [4] 0.03 | [5] 0.006 | [6] 0.001 | [7] -0.02 | [8] 0.022 | [9] -0.053 | [10] -0.03 | [11] -0.02 | [12] 0 | [13] -0.016 | [14] 0.005 | [15] -0.002 | [16] -0.012 | [17] -0.016 | [18] -0.042 | [19] 0.008 | [20] 0

RPSA (UniProt P08865)
inactive: [1] 0.109 | [2] 0.243 | [3] 0.013 | [4] -0.038 | [5] -0.027 | [6] 0.038 | [7] -0.037 | [8] -0.006 | [9] 0.018 | [10] 0.013 | [11] -0.005 | [12] 0.078 | [13] 0.099 | [14] 0.01 | [15] 0.129 | [16] 0.067 | [17] 0.053 | [18] 0.004 | [19] -0.015 | [20] 0.028

RPAP3 (UniProt Q9H6T3)
inactive: [1] -0.025 | [2] -0.104 | [3] 0.043 | [4] -0.006 | [5] -0.045 | [6] -0.035 | [7] 0.029 | [8] 0.039 | [9] 0.027 | [10] -0.034 | [11] -0.078 | [12] -0.075 | [13] -0.002 | [14] -0.007 | [15] 0.064 | [16] -0.04 | [17] 0.027 | [18] -0.052 | [19] 0.065 | [20] -0.006

Reference: the supplement of paper PMC10849652
